Values from PubChem BioAssay AID1671195 (Yale University, 2021).
Test: 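Regulators of LDL receptor activity judged by labelled LDL uptake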 (primary screen). Cells: human Huh7 hepatoma cells. Knock-down reagent: siRNA pool against human genes, 18 nM. Timing: about 2 to 2.5 days of knockdown, then 8 h LDL uptake. Conditions: DiI-labelled LDL at 30 µg/ml for 8 h, in lipoprotein-deficient serum medium. Detection: 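Fluorescent LDL signal imaged in cells, scaled to the plate median, robust z-score for each replicate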. Reading the numbers: robust z-score: higher = more LDL uptake after knockdown. Hit rule: 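a gene counts as active if at least two replicate z-scores exceed ±2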.
In all, the deposit lists about 22,000 reagents; this is an unselected part. About 1,510 of all reagents (6.9%) count as active. 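Active includes knockdowns raising or lowering LDL uptake; positive z-scores mean more uptake, negative mean less.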 The numbers tell different reagents against one gene apart.

no.	target gene	reagent	robust z-score, replicate 1	robust z-score, replicate 2	robust z-score, replicate 3	outcome
1	MARK1	1	-0.0602	-0.376	-0.117	inactive
2	COL6A6	1	-0.573	-0.654	-1.41	inactive
3	NOTO	1	-1.41	-0.194	-0.362	inactive
4	ERFL	1	-0.938	-0.834	-0.994	inactive
5	TMEM132E	1	0.204	-0.604	0.111	inactive
6	AURKA	1	-0.42	-0.426	-0.147	inactive
7	ATXN7L2	1	-1.4	-1.41	-2.13	inactive
8	GRK7	1	0.528	0.293	0.834	inactive
9	PGF	1	-0.216	-0.563	-1.36	inactive
10	RNF25	1	0.829	0.0251	0.389	inactive
11	TMEM97	1	-0.85	-0.203	-1.71	inactive
12	PTMA	1	-0.97	-0.978	-1	inactive
13	OCLM (retired record)	1	1.9	2.32	0.951	inactive
14	GRTP1	1	0.688	0.679	0.551	inactive
15	SZT2	1	2.01	0.358	1.66	inactive
16	SZT2	2	-1.02	-0.364	-0.959	inactive
17	SPOCK3	1	-0.464	0.667	-0.31	inactive
18	RP1L1	1	-0.0834	-0.582	-0.564	inactive
19	TNN	1	-1.83	-1.4	-1.35	inactive
20	PIGO	1	0.309	0.385	1.07	inactive
21	CCDC162P	1	2.97	2.18	3.3	active
22	CCDC162P	2	0.607	1.37	0.885	inactive
23	CCDC162P	3	1.63	0.401	0.789	inactive
24	CCDC162P	4	-0.757	-1.19	-1.04	inactive
25	OPRL1	1	-0.301	0.254	-0.0228	inactive
26	TRIM56	1	-0.155	-0.318	-0.513	inactive
27	PHLDB2	1	5.19	3.94	4.23	active
28	ZBTB17	1	0.515	0.0738	-0.165	inactive
29	SSX1	1	0.421	1.2	0.494	inactive
30	POFUT2	1	-0.707	0.987	-0.00846	inactive
31	GABRB3	1	0.155	-0.86	0.141	inactive
32	QPCTL	1	-1.02	-0.201	-0.414	inactive
33	COPS2	1	-1.23	-1.2	-1.58	inactive
34	OR6Q1	1	1.39	1.74	1.62	inactive
35	ZNF385C	1	-0.497	-0.441	0.785	inactive
36	LOC390913 (retired record)	1	1.16	1.78	1.42	inactive
37	CYSLTR2	1	0.271	0.846	-0.0882	inactive
38	AKNA	1	0.326	0.0313	0.377	inactive
39	TBXAS1	1	-1.08	-1.16	-1.03	inactive
40	MARCHF11-DT	1	-1.1	-1.53	-1.11	inactive
41	TRIM3	1	-0.335	-0.562	-0.888	inactive
42	GSN	1	-1.75	0.136	-2.2	inactive
43	OXCT1	1	0.585	2.43	0.538	inactive
44	TEAD3	1	-0.547	-0.81	-0.664	inactive
45	DACT2	1	0.621	-0.383	-0.294	inactive
46	HCRTR1	1	0.0657	-0.268	0.114	inactive
47	APOC2	1	-1.54	-1.73	-1.51	inactive
48	IFI35	1	-0.617	0.482	-0.878	inactive
49	ACNATP	1	-0.315	-0.509	-1.39	inactive
50	C9orf78	1	0.671	0.461	-2.08	inactive
51	CEP290	1	0.278	0.137	0.666	inactive
52	IL31	1	-0.0144	0.115	-0.256	inactive
53	R3HDM1	1	-0.362	-0.714	-0.128	inactive
54	UQCR10	1	-0.678	-0.568	0.0629	inactive
55	SLC27A4	1	-0.705	-0.877	-1.83	inactive
56	RSU1	1	1.12	1.52	0.335	inactive
57	ASB5	1	0.431	-0.476	0.943	inactive
58	CIMIP1	1	-0.163	-0.694	-0.426	inactive
59	NME3	1	0.0133	1.81	0.849	inactive
60	CSTF3	1	-0.581	0.357	-0.521	inactive
61	CFAP36	1	0.536	1.34	1.02	inactive
62	LOC100233156	1	0.94	0.461	0.715	inactive
63	CIB2	1	-0.162	0.0654	-0.155	inactive
64	SLC5A10	1	-0.867	-1.21	-0.862	inactive
65	TRAPPC4	1	-0.89	-0.654	-0.819	inactive
66	FLJ40288	1	1.56	1.64	1.54	inactive
67	PURA	1	0.4	0.713	0.824	inactive
68	OR1K1	1	0.556	1.36	1.08	inactive
